According to PubChem BioAssay AID2662 (National Center for Advancing Translational Sciences (NCATS), 2010):
Hit rate of the full screen: of about 290,000 compounds, about 110 (0.038%) were called active. Inconclusive means that the source gave no clear call. Such entries were picked first, then a sample of the others. Calls come from the whole dose curve; as a rule, active = well fitted inhibition curve with a large enough effect in the polarisation, with a control signal flat (not every such curve was filed as active); inconclusive = small, poorly fitted or top-dose-only effect, or effect the other way, or a change in a side signal; inactive = no such curve, though single readings can be large or run the other way; the % refers to the polarisation. Potencies beside an inconclusive call are fits to weak or partial responses and may not hold up. A note “side channel” means that the fit belongs to a control or component signal, not to the main read-out.
Potency is the fitted concentration of half-maximal effect.

By UniProt entry, the sequences of proteins in these tests, tags left out.
UniProt Q03164, whole entry, looked up: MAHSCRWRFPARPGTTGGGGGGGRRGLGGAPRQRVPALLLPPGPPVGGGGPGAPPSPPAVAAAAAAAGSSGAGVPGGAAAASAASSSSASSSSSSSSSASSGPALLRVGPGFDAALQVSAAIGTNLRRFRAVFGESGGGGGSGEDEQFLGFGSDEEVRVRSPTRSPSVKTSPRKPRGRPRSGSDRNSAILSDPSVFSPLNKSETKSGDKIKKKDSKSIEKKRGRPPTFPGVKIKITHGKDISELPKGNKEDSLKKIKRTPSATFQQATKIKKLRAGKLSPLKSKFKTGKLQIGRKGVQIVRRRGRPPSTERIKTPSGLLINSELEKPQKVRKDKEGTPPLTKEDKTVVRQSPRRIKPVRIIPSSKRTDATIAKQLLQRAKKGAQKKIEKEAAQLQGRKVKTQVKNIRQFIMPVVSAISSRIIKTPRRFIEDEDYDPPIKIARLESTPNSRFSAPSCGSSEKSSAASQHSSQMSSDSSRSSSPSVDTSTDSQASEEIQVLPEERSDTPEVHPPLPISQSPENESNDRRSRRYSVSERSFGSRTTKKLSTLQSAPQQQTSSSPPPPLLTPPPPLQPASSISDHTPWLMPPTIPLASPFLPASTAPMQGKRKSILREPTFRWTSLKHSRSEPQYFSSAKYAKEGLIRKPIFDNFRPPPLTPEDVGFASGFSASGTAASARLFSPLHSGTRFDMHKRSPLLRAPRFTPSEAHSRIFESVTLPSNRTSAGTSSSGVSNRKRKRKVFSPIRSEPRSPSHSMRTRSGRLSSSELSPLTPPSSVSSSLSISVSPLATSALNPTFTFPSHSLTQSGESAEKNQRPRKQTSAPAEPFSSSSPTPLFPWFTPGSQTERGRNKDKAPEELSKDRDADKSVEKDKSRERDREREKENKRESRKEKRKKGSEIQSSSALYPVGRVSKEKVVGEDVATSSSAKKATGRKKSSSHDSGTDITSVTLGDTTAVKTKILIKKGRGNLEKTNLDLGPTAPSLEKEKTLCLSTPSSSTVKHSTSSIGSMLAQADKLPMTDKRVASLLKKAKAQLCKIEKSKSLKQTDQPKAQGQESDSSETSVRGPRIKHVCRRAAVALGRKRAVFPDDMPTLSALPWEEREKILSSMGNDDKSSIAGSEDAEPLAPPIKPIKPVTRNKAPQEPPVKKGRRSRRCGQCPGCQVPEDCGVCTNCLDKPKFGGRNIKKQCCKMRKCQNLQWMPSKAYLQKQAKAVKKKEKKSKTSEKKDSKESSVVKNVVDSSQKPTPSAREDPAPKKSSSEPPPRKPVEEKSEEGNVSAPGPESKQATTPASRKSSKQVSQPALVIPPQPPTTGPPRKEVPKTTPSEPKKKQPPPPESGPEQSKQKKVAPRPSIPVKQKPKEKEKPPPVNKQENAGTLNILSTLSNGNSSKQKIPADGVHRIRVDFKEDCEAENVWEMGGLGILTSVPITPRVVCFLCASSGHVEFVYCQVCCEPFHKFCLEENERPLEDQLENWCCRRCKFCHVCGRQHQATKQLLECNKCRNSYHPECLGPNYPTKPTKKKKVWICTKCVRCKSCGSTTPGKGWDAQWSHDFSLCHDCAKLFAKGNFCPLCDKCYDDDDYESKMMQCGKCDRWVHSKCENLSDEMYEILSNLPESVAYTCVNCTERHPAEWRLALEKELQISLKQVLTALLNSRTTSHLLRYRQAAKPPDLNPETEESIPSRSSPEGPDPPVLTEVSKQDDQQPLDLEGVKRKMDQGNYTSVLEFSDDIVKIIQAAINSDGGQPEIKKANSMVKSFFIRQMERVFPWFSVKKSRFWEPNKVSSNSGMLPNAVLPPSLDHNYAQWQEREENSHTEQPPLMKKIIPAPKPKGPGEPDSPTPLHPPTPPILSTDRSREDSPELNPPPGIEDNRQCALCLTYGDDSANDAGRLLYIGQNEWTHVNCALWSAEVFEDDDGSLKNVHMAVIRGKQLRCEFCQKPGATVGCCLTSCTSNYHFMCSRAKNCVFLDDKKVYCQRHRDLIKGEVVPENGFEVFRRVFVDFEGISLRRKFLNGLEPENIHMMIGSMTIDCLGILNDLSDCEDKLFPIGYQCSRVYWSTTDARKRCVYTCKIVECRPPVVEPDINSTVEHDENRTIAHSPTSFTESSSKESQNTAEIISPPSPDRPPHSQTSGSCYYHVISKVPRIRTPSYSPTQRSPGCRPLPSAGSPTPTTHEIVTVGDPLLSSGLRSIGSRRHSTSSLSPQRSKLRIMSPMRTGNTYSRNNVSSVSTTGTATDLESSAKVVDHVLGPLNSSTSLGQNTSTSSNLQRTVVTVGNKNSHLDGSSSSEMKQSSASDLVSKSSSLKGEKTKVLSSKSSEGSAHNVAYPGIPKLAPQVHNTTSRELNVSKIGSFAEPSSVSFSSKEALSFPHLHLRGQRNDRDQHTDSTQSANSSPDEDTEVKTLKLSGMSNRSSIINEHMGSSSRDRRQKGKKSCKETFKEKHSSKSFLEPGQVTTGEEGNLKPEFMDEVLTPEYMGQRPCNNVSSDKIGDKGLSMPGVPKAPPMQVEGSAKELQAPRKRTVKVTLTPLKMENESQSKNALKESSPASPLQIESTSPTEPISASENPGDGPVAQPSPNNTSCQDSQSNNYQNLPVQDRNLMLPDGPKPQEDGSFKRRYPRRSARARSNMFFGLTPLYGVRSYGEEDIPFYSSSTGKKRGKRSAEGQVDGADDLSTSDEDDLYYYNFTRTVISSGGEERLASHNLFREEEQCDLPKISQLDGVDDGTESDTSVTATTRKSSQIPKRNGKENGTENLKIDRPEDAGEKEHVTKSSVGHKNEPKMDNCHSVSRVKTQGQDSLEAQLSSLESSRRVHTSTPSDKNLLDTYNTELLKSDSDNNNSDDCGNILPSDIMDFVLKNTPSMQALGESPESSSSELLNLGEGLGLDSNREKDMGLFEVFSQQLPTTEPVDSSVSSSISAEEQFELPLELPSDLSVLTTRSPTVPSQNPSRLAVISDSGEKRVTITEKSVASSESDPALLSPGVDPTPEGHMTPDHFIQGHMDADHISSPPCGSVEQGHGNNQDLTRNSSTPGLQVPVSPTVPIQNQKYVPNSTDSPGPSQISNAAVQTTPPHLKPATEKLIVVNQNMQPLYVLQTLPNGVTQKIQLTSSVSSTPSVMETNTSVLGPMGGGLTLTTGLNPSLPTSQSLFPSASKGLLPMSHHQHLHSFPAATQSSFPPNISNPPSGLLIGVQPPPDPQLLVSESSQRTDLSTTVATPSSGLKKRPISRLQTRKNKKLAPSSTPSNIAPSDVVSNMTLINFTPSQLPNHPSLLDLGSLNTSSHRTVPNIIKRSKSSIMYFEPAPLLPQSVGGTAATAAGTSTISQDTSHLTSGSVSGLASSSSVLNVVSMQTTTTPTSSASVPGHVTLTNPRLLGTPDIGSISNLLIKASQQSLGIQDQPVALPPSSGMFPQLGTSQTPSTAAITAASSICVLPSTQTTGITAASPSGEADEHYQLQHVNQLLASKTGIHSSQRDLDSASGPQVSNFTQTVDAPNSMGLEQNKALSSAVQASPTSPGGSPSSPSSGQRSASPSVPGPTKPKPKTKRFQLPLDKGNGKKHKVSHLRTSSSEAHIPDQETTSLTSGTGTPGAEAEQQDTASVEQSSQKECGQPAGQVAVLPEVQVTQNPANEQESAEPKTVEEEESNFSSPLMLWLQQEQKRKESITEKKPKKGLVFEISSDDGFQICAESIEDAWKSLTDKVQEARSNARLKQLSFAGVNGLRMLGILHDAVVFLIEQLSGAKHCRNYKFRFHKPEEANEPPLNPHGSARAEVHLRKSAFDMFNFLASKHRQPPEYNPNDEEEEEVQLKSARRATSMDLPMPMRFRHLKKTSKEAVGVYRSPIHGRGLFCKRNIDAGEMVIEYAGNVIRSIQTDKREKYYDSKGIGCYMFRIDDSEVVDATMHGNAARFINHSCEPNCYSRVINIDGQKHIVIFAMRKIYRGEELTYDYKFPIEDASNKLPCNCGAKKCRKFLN

The compounds below were run against Histone-lysine N-methyltransferase 2A (Homo sapiens) (UniProt Q03164) (assay: qHTS Fluorescence Polarization Assay for Inhibitors of MLL CXXC domain - DNA interaction). Settings: MLL-CXXC / FITC-HOXA9 DNA fluorescence polarization; activity change, negative = inhibition: at 115 µM (top of the series).
Outline: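 Purified MLL-CXXC (added from a 7 uM solution) was preincubated 5 min at ambient with pinned compounds in 50 mM Tris-HCl pH 7.5, 50 mM NaCl, 1 mM DTT, 0.05% BSA. Fluorescein-labeled HOX-A9 DNA (50 nM solution) followed, 30 min, then polarization read.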
For O=c1[nH]c(=O)n(-c2ccc(F)cc2)c(O)c1C=Nc1ccccc1N1CCCC1, the Potency was inconclusive: 35.5 µM [fluorescent, side channel, partial curve]. CCCC(C)C(=O)NC1CCSC1=O (stereo unspecified) was tested, and the “activity change, negative = inhibition” value was inactive: 7.26%. O=C(O)Cn1cc(/C=C2\C(=O)NC(=O)N(c3ccc(Cl)cc3)C2=O)c2ccccc21 was tested, and the Potency was inconclusive: 8.91 µM [fluorescent, side channel, partial curve]. CN(C)C(=O)Oc1ccc(C(=O)c2ccccc2)cc1 was tested, and the “activity change, negative = inhibition” value was inactive: -3.99%. With Cc1cc(C=C(C#N)C#N)ccc1N1CCCC1 the Potency was inconclusive: 31.6 µM [fluorescent, side channel, partial curve]. With CCCCN1C(=O)/C(=C/c2ccc(N(C)C)cc2)C(=O)N(Cc2ccco2)C1=O the Potency was inconclusive: 31.6 µM [inhibitor, single point]. For COc1ccc([N+](=O)[O-])cc1CSc1ccccn1, the Potency was inconclusive: 39.8 µM [fluorescent, side channel, single point]. For CC(=O)NC1C(OC(=O)Cc2ccccc2)OC(COC(C)=O)C(OC(C)=O)C1OC(C)=O (stereo unspecified), the Potency was inconclusive: 14.1 µM [fluorescent, side channel, single point]. With CCc1ccc(/C=C(/C#N)C(N)=S)cc1 the Potency was inconclusive: 35.5 µM [inhibitor, single point]. CC(N)Cc1cn(Cc2ccccc2)c2ccccc12 (stereo unspecified) was tested, and the Potency was inconclusive: 44.7 µM [quencher, side channel, single point]. With O=c1[nH]c(=S)n(Cc2ccc(F)cc2)c(O)c1/C=N/N1CCCCCC1 the Potency was inconclusive: 31.6 µM [fluorescent, side channel, partial curve]. For CN(C)/C=C1/C(=O)NC(=O)N(CCNc2ncc(C(F)(F)F)cc2Cl)C1=O, the Potency was inconclusive: 35.5 µM [fluorescent, side channel, partial curve]. In the case of Cc1cc(C=C2C(=O)NC(=O)NC2=O)c(C)n1-c1cccnc1, the Potency is reported as inconclusive: 31.6 µM [inhibitor, single point]. With CCNC(=S)N(C)CCc1cc2c(c(OC)c1C=C1C(=O)N(C)C(=O)N(C)C1=O)OCO2 the Potency was inconclusive: 5.62 µM [inhibitor, partial curve]. COc1ccc(CN2C(=O)NC(=O)/C(=C\c3ccc(OC)c(OC)c3OC)C2=O)cc1 was tested, and the Potency was inconclusive: 35.5 µM [inhibitor, single point]. In the case of OC(Cn1c2ccccc2c2ccccc21)C[n+]1cccc2ccccc21 (stereo unspecified), the Potency is reported as inconclusive: 35.5 µM [quencher, side channel, partial curve]. For CC(N)[C@H](O)c1ccc(O)c(O)c1 (stereo partly specified), the Potency was inconclusive: 31.6 µM [inhibitor, partial curve]. COc1ccc(CC(C)NCCC(c2ccccc2)c2ccccc2)cc1 (stereo unspecified) was tested, and the Potency was inconclusive: 50.1 µM [quencher, side channel, partial curve, poor fit]. For COC(=O)c1ccc(CC(C(=O)c2ccccc2)N(C)C)cc1 (stereo unspecified), the Potency was inconclusive: 35.5 µM [fluorescent, side channel, partial curve]. With CN1CCN(c2c(C#N)c(C(F)(F)F)nn2C)CC1 the Potency was inconclusive: 1 µM [fluorescent, side channel, full curve, poor fit]. O=C1/C(=C\c2cc3c(cc2Cl)OCO3)N2CCC1CC2 was tested, and the Potency was inconclusive: 89.1 µM [fluorescent, side channel, single point]. In the case of Cc1cc(/C=C2\C(=O)NC(=O)N(Cc3ccco3)C2=O)c(C)n1-c1ccc(O)cc1, the Potency is reported as inconclusive: 1 µM [inhibitor, full curve, poor fit]. With Cc1cc(/C=C2\C(=O)NC(=O)N(c3ccc(F)cc3)C2=O)c(C)n1-c1ccc(C(=O)O)cc1 the Potency was inconclusive: 17.8 µM [inhibitor, partial curve]. COc1ccc(N2C(=O)/C(=C/c3ccc(C)o3)C(=O)NC2=S)cc1 was tested, and the Potency was inconclusive: 31.6 µM [fluorescent, side channel, partial curve]. For O=C(O)CC1OCC=C2CN3CCC45C6=CC(=O)C(=O)C([N+](=O)[O-])=C6NC4C1C2CC35 (stereo unspecified), the Potency was inconclusive: 12.6 µM [inhibitor, full curve, poor fit]. COc1ccc(N2C(=O)NC(=O)/C(=C/c3ccc([N+](=O)[O-])s3)C2=O)cc1 was tested, and the Potency was inconclusive: 22.4 µM [inhibitor, partial curve]. In the case of O=C1NC(=O)C(=Cc2cn(CCOc3ccc4c(c3)OCO4)c3ccccc23)C(=O)N1, the Potency is reported as active: 35.5 µM. With COc1cc(/C=C/c2nc3ccccc3c(=O)n2-c2ccccc2O)ccc1O the Potency was inconclusive: 35.5 µM [fluorescent, side channel, partial curve]. C=C1C(=O)O[C@H]2[C@H]1[C@H](OC(=O)CC(=O)O[C@@H]1C[C@@H](C)[C@@H]3C=CC(=O)[C@@]3(C)[C@H]3OC(=O)C(=C)[C@H]13)C[C@@H](C)[C@H]1C=CC(=O)[C@]12C was tested, and the Potency was inconclusive: 5.62 µM [inhibitor, full curve]. In the case of CCn1c(O)c(/C=N/NC(=O)c2ccccc2)c(=O)n(CC)c1=S, the Potency is reported as inconclusive: 15.8 µM [inhibitor, single point]. With N#CC1=C(N)Oc2c(c(=O)oc3ccccc23)C1c1cccnc1 (stereo unspecified) the Potency was inconclusive: 31.6 µM [inhibitor, partial curve]. For Cn1ncnc2c(=O)n(C)c(=O)nc1-2, the Potency was inconclusive: 10 µM [inhibitor, full curve, poor fit]. With CC1(C)OC(c2ccccc2)=C/C(=C/C=C2C(=O)NC(=S)NC2=O)O1 the Potency was inconclusive: 20 µM [fluorescent, side channel, partial curve]. With NC(Cc1cc(O)c(O)cc1O)C(=O)O (stereo unspecified) the Potency was inconclusive: 31.6 µM [inhibitor, partial curve]. CCCCC(=O)N/N=C/c1c(O)n(C2CC2)c(=S)[nH]c1=O was tested, and the “activity change, negative = inhibition” value was inactive: -14.7%. With COc1ccc(C(=O)CSc2nnc(CNC(=O)c3ccc(S(=O)(=O)N(C)C)cc3)o2)cc1 the Potency was inconclusive: 10 µM [fluorescent, side channel, full curve]. With Cc1ccc(OCCOc2cccc(C=C3C(=O)NC(=O)NC3=O)c2)c(C)c1 the Potency was inconclusive: 22.4 µM [inhibitor, partial curve]. With Cc1ncc([N+](=O)[O-])n1CCOc1nonc1N the Potency was inconclusive: 63.1 µM [fluorescent, side channel, single point]. With O=C(c1ccccc1)c1cn(CC(=O)N2CCOCC2)c2ccccc12 the “activity change, negative = inhibition” value was inactive: 1.15%. With O=c1c2ccccc2nc(/C=C/c2cccnc2)n1Cc1ccccc1 the Potency was inconclusive: 31.6 µM [inhibitor, partial curve, poor fit]. In the case of Cc1ccc[n+](CC(=O)c2ccccc2)c1, the Potency is reported as inconclusive: 70.8 µM [quencher, side channel, single point]. Cc1ccccc1N1C(=O)NC(=O)/C(=C\c2ccc3c(c2)CCCN3Cc2ccccc2)C1=O was tested, and the Potency was inconclusive: 79.4 µM [fluorescent, side channel, single point]. CN(C)/C=c1\sc2c(C#N)cc(C(=O)c3ccc(Br)cc3)n2c1=O was tested, and the Potency was inconclusive: 70.8 µM [fluorescent, side channel, single point]. With CCN1CCN(C(=O)Cc2ccccc2OC)CC1 the Potency was inconclusive: 1.26 µM [inhibitor, partial curve, poor fit]. With O=C(O)Cn1cc(/C=C2\C(=O)NC(=O)N(c3ccc(Br)cc3)C2=O)c2ccccc21 the Potency was inconclusive: 20 µM [inhibitor, partial curve]. CN1/C(=C\C=C2C(=O)NC(=S)NC2=O)C(C)(C)c2ccccc21 was tested, and the Potency was inconclusive: 5.62 µM [fluorescent, side channel, full curve]. With O=c1[nH]c(O)c(/C=C2\C=Nc3ccc(OCc4ccccc4)cc32)c(=O)[nH]1 the “activity change, negative = inhibition” value was inactive: -12.5%. In the case of CCN1/C(=C\C=C\C2=[N+](CC)c3ccccc3C2(C)C)C(C)(C)c2ccccc21, the Potency is reported as inconclusive: 10 µM [fluorescent, side channel, full curve]. In the case of COc1cc(OC)c(OC)cc1CNCCc1ccc(F)cc1, the Potency is reported as inconclusive: 70.8 µM [quencher, side channel, single point]. In the case of O=C1NC(=O)N(c2ccccc2)C(=O)/C1=C\c1ccc2c3c(cccc13)CC2, the Potency is reported as inconclusive: 70.8 µM [inhibitor, single point]. For CCn1c(O)c(C=Nc2ccc(N3CCOCC3)cc2)c(=O)n(CC)c1=S, the Potency was inconclusive: 31.6 µM [fluorescent, side channel, partial curve]. Cc1cc(OCC(=O)NC2CCS(=O)(=O)C2)c2c3c(c(=O)oc2c1)CCC3 (stereo unspecified) was tested, and the “activity change, negative = inhibition” value was inactive: -0.28%. For CCC1(C)OC(c2ccccc2)=C/C(=C/C=C2C(=O)NC(=O)NC2=O)O1 (stereo unspecified), the Potency was inconclusive: 44.7 µM [fluorescent, side channel, partial curve]. With CCN(CCO)c1ccc(N=Cc2c(O)n(C)c(=S)[nH]c2=O)cc1 the Potency was inconclusive: 14.1 µM [fluorescent, side channel, partial curve]. With COc1ccc(Oc2c(C)oc3cc(OC(=O)N(C)C)ccc3c2=O)cc1 the Potency was inconclusive: 31.6 µM [fluorescent, side channel, single point]. In the case of Cc1cc(N2CCCC2)ccc1C=C(C#N)C#N, the Potency is reported as inconclusive: 39.8 µM [fluorescent, side channel, partial curve].
